Measured values: the supplement of paper PMC10849652
The list shows a part of the results.

Protein sequences, listed by entry. Tags and fused reporters are not part of them. Lines headed by an entry give the natural chain unless they say otherwise; changes in a name come on top.
UniProt Q969R2: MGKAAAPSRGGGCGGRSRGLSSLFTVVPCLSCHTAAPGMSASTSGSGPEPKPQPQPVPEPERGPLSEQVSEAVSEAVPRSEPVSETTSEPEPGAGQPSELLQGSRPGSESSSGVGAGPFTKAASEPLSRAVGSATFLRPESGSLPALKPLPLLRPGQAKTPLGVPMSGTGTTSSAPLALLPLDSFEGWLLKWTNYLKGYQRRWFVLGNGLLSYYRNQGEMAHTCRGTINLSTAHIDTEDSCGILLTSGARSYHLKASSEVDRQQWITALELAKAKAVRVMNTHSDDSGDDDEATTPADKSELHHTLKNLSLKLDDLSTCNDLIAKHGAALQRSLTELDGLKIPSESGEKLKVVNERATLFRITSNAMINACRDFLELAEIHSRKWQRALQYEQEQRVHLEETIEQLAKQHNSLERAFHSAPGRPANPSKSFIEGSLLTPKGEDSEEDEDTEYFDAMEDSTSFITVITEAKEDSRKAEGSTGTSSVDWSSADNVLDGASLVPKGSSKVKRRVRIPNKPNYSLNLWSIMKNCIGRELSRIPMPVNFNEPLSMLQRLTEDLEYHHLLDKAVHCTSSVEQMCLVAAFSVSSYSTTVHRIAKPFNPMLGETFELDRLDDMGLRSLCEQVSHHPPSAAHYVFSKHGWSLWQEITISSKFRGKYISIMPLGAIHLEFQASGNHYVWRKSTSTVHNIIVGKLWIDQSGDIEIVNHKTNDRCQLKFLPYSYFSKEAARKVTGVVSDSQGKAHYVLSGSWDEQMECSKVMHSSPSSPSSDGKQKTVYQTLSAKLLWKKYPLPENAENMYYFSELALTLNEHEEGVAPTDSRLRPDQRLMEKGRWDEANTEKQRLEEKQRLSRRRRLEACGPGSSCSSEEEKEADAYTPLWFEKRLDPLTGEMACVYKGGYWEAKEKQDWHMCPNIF
UniProt Q6PK18: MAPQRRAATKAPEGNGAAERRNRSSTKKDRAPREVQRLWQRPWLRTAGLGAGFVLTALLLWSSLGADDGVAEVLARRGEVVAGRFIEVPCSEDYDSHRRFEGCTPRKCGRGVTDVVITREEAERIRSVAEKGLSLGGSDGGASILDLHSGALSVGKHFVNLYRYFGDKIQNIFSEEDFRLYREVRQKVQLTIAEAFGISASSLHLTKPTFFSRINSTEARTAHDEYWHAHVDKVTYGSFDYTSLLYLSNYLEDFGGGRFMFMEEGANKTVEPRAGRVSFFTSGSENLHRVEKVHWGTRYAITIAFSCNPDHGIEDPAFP
UniProt P51003: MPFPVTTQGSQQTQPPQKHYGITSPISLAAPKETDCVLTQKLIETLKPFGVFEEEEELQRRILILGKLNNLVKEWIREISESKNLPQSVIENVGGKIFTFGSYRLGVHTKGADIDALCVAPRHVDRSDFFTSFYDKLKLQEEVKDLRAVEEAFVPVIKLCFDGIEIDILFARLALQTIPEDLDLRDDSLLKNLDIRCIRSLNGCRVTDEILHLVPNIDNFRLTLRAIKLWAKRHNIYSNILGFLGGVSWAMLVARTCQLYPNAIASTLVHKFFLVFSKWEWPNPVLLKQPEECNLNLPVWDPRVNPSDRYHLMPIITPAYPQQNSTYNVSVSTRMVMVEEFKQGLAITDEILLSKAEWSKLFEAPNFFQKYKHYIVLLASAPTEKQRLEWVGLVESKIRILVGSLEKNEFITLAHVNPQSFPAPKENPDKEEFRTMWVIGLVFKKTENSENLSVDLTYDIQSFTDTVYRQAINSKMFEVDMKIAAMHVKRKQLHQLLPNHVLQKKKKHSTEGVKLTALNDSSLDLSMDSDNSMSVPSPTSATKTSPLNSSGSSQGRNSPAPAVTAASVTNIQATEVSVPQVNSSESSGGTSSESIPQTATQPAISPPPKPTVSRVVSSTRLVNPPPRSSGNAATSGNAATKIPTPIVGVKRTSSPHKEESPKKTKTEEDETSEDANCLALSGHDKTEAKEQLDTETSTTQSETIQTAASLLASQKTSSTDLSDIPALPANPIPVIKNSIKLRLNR
UniProt Q8TEW0: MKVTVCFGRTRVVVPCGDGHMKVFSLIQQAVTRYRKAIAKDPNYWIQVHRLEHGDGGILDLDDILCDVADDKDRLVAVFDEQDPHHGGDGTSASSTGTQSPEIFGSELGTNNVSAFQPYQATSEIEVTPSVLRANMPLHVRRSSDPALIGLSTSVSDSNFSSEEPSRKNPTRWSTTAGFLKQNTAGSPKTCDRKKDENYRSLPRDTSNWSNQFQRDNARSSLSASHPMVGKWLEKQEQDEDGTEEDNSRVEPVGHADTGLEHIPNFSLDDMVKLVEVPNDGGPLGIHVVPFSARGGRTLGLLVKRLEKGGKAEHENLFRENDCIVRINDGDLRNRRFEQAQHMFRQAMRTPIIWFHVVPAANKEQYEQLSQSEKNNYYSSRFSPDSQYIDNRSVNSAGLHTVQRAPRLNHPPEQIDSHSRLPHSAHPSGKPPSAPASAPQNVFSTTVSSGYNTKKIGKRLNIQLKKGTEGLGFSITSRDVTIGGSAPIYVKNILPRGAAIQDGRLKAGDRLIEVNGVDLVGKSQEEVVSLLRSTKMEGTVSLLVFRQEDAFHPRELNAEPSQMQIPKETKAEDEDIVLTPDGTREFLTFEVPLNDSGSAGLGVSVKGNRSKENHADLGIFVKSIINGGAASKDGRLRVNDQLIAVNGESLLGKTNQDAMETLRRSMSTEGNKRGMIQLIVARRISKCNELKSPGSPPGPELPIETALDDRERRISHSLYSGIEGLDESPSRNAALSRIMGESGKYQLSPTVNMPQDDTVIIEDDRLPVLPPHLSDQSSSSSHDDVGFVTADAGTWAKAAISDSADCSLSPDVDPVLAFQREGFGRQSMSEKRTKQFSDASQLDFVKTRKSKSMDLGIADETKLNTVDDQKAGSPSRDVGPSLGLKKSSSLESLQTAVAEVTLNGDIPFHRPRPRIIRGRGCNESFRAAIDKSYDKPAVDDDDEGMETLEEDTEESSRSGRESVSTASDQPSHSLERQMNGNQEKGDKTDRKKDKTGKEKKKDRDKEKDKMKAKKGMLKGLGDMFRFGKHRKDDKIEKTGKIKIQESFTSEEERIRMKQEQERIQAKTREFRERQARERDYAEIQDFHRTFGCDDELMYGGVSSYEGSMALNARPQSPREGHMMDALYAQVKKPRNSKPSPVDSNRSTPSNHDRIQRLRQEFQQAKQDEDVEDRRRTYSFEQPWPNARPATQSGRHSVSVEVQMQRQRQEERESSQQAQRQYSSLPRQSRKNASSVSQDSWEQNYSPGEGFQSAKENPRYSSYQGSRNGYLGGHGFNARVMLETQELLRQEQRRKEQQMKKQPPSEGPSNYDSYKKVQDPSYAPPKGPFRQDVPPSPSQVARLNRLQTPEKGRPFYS
UniProt Q9NVE7: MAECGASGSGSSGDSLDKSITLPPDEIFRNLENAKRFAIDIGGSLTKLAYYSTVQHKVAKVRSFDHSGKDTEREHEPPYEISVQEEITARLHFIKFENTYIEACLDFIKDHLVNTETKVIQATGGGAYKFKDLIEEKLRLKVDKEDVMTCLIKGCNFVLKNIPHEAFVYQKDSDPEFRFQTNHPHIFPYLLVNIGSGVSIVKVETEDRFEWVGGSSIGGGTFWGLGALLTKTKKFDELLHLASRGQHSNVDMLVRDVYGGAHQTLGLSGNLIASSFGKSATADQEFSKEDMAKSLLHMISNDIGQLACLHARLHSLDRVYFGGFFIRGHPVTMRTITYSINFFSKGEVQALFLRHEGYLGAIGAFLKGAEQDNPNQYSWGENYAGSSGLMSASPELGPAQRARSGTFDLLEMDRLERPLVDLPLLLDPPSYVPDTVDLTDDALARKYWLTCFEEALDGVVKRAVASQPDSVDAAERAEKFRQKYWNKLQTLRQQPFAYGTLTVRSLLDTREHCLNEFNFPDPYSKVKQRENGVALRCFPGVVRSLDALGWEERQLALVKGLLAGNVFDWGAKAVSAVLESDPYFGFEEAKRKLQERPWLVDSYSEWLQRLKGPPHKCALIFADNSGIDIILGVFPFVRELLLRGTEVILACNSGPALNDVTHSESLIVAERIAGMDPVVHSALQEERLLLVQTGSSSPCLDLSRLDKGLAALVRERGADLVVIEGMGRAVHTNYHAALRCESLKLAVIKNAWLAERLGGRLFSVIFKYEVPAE
UniProt Q8N1F7: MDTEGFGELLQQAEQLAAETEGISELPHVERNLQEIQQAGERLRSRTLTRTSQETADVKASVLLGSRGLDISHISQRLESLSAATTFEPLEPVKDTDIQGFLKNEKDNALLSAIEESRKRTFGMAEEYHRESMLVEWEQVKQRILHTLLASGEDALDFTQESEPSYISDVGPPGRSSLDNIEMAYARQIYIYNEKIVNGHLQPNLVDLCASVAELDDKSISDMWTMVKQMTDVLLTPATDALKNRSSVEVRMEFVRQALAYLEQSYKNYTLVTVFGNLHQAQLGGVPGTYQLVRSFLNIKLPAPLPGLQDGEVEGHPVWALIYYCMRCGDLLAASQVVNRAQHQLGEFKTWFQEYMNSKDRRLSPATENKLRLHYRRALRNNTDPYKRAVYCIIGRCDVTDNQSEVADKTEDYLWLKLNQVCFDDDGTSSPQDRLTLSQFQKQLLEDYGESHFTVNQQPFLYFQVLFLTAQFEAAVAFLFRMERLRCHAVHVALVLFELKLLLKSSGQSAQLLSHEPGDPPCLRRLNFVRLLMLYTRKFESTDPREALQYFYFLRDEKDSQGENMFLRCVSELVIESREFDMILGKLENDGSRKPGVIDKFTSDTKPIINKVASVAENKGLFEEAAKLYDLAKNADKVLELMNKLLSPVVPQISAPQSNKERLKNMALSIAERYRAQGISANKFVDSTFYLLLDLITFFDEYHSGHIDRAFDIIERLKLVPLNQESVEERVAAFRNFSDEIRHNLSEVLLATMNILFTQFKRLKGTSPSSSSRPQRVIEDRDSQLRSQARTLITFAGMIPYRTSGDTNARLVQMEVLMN
UniProt O14841: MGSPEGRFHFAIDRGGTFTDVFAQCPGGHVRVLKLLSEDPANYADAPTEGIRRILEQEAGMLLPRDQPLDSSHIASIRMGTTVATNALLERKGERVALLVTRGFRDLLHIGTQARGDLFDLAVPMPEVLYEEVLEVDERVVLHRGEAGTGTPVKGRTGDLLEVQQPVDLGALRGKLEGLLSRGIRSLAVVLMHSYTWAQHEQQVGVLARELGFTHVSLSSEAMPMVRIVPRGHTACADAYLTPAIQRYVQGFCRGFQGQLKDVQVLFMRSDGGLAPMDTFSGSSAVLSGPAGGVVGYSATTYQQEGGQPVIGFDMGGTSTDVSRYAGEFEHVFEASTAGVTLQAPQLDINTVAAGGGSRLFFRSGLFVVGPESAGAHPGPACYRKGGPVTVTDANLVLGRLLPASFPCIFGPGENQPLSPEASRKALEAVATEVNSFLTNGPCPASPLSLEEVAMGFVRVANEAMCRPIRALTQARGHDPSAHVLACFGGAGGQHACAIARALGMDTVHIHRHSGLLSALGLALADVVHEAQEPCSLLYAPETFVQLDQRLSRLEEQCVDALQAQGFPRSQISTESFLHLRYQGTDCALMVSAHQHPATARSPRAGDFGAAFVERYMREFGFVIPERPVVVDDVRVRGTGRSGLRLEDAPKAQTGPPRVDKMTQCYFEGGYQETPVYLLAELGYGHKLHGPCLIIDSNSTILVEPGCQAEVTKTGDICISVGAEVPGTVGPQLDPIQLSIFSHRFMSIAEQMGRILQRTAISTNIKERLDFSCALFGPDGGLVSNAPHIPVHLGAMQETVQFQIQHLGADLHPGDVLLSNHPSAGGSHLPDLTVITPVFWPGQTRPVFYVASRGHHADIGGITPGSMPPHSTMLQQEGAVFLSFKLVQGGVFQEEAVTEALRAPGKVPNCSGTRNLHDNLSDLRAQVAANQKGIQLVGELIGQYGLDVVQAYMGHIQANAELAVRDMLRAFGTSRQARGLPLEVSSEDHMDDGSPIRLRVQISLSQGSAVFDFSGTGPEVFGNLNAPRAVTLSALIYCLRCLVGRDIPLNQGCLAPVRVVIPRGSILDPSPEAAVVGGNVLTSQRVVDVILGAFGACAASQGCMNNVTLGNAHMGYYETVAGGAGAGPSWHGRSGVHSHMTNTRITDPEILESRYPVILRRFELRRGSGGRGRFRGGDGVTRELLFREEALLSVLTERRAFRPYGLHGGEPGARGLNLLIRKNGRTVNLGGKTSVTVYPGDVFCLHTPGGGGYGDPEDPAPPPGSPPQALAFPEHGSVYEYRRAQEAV
UniProt Q9BTK6, whole entry, looked up: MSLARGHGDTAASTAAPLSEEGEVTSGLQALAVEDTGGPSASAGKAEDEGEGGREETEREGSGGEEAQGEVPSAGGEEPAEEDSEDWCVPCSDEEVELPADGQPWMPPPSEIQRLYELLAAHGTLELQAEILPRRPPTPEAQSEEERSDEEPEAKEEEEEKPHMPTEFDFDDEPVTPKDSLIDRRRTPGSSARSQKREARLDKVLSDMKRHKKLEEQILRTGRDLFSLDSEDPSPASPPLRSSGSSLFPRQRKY

What was measured:
Assay in all cases: log2 fold change, soluble protein after heating vs DMSO (PISA); higher = thermal stabilisation; K562 lysate, 10 uM; active = over 0.2 and 3.5 SD of the protein, either way, in both replicates (recomputed)
vemurafenib = compound: CCCS(=O)(=O)Nc1ccc(F)c(C(=O)c2c[nH]c3ncc(-c4ccc(Cl)cc4)cc23)c1F [vemurafenib]
In short: (§1)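 Thermal stability, expressed as log-two fold change relative to solvent controls, is given from duplicates. Crude K562 extract in PBS pH 7.4 with 1 mM MgCl2, at 1 mg/mL protein, was treated with 10 μM compound for 30 min and heated in aliquots for 3 min across 48°C-58°C. After pooling, adjustment to 0.5% NP-40 at 4°C and centrifugation at 21,000xg for 90 min, supernatant protein was measured by TMTpro 16plex LC-MS/MS with channel sums equalised.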

[1] = compound: CCCS(=O)(=O)Nc1ccc(F)c(C(=O)c2c[nH]c3ncc(Cl)cc23)c1F
In short: as §1

barasertib = compound: CCN(CCCOc1ccc2c(Nc3cc(CC(=O)Nc4cccc(F)c4)[nH]n3)ncnc2c1)CCOP(=O)(O)O [barasertib]
In short: as §1

[2] = compound: CC[C@@H]1C(=O)N(C)c2cnc(Nc3ccc(C(=O)NC4CCN(C)CC4)cc3OC)nc2N1C1CCCC1
In short: as §1

volasertib = compound: CC[C@@H]1C(=O)N(C)c2cnc(Nc3ccc(C(=O)N[C@H]4CC[C@H](N5CCN(CC6CC6)CC5)CC4)cc3OC)nc2N1C(C)C [volasertib]
In short: as §1

[3] = compound: CCn1c(C(=O)N(C2CC2)C2CC2)cc2c3c(ncn3C)c(Nc3cc(C)n(C)n3)nc21
In short: as §1

[4] = compound: CCn1cc(-c2ccnc3[nH]c(-c4cccc(CN(C)C)c4)cc23)c(-c2ccc(NC(=O)N(C)C)cc2)n1
In short: as §1

[5] = compound: CN1CCC(CNc2ccc3ncc(-c4cccc(OC(F)(F)F)c4)n3n2)CC1
In short: as §1

saracatinib = compound: CN1CCN(CCOc2cc(OC3CCOCC3)c3c(Nc4c(Cl)ccc5c4OCO5)ncnc3c2)CC1 [saracatinib]
In short: as §1

sotrastaurin = compound: CN1CCN(c2nc(C3=C(c4c[nH]c5ccccc45)C(=O)NC3=O)c3ccccc3n2)CC1 [sotrastaurin]
In short: as §1

alvocidib = compound: CN1CC[C@H](c2c(O)cc(O)c3c(=O)cc(-c4ccccc4Cl)oc23)[C@H](O)C1 [alvocidib]
In short: as §1

Tubastatin A = compound: CN1CCc2c(c3ccccc3n2Cc2ccc(C(=O)NO)cc2)C1 [Tubastatin A]
In short: as §1

[6] = compound: CNC(=O)C1=CC=CC=C1NC2=NC(=NC=C2Cl)NC3=C(C=C(C=C3)N4CCOCC4)OC
In short: as §1

defactinib = compound: CNC(=O)c1ccc(Nc2ncc(C(F)(F)F)c(NCc3nccnc3N(C)S(C)(=O)=O)n2)cc1 [defactinib]
In short: as §1

[7] = compound: CNc1nc(-c2ccc3c(N)n[nH]c3c2)cc(N2C[C@@H](C(=O)NC3CCCCC3)CC[C@H]2C)n1
In short: as §1

encorafenib = compound: COC(=O)N[C@@H](C)CNc1nccc(-c2cn(C(C)C)nc2-c2cc(Cl)cc(NS(C)(=O)=O)c2F)n1 [encorafenib]
In short: as §1

[8] = compound: COC(=O)[C@H](CCSC)NC(=O)C1=C(C=C(C=C1)NC[C@H](CS)N)C2=CC=CC=C2
In short: as §1

alisertib = compound: COc1cc(Nc2ncc3c(n2)-c2ccc(Cl)cc2C(c2c(F)cccc2OC)=NC3)ccc1C(=O)O [alisertib]
In short: as §1

[9] = compound: COc1cc2nc(-c3cc(F)ccc3O)nc(N[C@@H]3CNC[C@H]3C(C)(C)O)c2cc1OC
In short: as §1

gefitinib = compound: COc1cc2ncnc(Nc3ccc(F)c(Cl)c3)c2cc1OCCCN1CCOCC1 [gefitinib]
In short: as §1

Row | Target | log2 fold change (vemurafenib) | log2 fold change [1] | log2 fold change (barasertib) | log2 fold change [2] | log2 fold change (volasertib) | log2 fold change [3] | log2 fold change [4] | log2 fold change [5] | log2 fold change (saracatinib) | log2 fold change (sotrastaurin) | log2 fold change (alvocidib) | log2 fold change (Tubastatin A) | log2 fold change [6] | log2 fold change (defactinib) | log2 fold change [7] | log2 fold change (encorafenib) | log2 fold change [8] | log2 fold change (alisertib) | log2 fold change [9] | log2 fold change (gefitinib)
1 | PAAF1 (UniProt Q9BRP4) | inactive: 0.021 | inactive: 0.006 | inactive: -0.04 | inactive: 0.04 | inactive: -0.002 | inactive: 0.011 | inactive: -0.068 | inactive: 0.072 | inactive: 0.014 | inactive: -0.016 | inactive: -0.012 | inactive: 0.016 | inactive: -0.002 | inactive: -0.037 | inactive: -0.017 | inactive: 0.035 | inactive: -0.038 | inactive: -0.017 | inactive: 0.011 | inactive: -0.012
2 | OGA (UniProt O60502) | inactive: 0 | inactive: 0.009 | inactive: 0.02 | inactive: -0.016 | inactive: -0.004 | inactive: 0.001 | inactive: 0.043 | inactive: -0.037 | inactive: -0.006 | inactive: -0.001 | inactive: 0.015 | inactive: -0.023 | inactive: 0.021 | inactive: 0.001 | inactive: 0.017 | inactive: 0.029 | inactive: -0.029 | inactive: 0.004 | inactive: 0 | inactive: 0.007
3 | OSBP2 (UniProt Q969R2) | inactive: -0.056 | inactive: -0.014 | inactive: -0.055 | inactive: 0.062 | inactive: -0.077 | inactive: -0.001 | active: -0.881 | inactive: 0.279 | inactive: 0.068 | inactive: 0.104 | inactive: -0.211 | inactive: 0.047 | inactive: -0.102 | inactive: 0.011 | inactive: -0.032 | inactive: 0.04 | inactive: -0.1 | inactive: 0.052 | inactive: -0.033 | inactive: 0.011
4 | NUP98 (UniProt P52948) | inactive: 0.001 | inactive: 0.035 | inactive: 0.02 | inactive: -0.005 | inactive: -0.071 | inactive: 0.031 | inactive: -0.062 | inactive: 0.019 | inactive: 0.073 | inactive: -0.005 | inactive: -0.019 | inactive: -0.117 | inactive: 0.029 | inactive: 0.031 | inactive: 0.047 | inactive: 0.064 | inactive: -0.04 | inactive: 0.01 | inactive: 0.017 | inactive: 0.011
5 | OGFOD3 (UniProt Q6PK18) | inactive: -0.005 | inactive: 0.011 | inactive: -0.063 | inactive: -0.152 | inactive: -0.007 | inactive: -0.036 | inactive: 0.19 | inactive: -0.022 | inactive: -0.037 | inactive: -0.013 | inactive: 0.011 | inactive: 0.048 | inactive: -0.019 | inactive: -0.027 | inactive: 0.009 | inactive: 0.06 | inactive: -0.061 | inactive: 0.053 | inactive: 0.068 | inactive: 0.012
6 | PAPOLA (UniProt P51003) | inactive: 0.003 | inactive: -0.005 | inactive: 0.008 | inactive: 0.046 | inactive: 0.01 | inactive: -0.02 | inactive: -0.015 | inactive: 0.039 | inactive: -0.002 | inactive: 0.013 | inactive: -0.004 | inactive: 0.085 | inactive: 0.021 | inactive: -0.013 | inactive: -0.012 | inactive: -0.009 | inactive: 0.025 | inactive: 0.01 | inactive: 0.017 | inactive: 0.018
7 | PARD3 (UniProt Q8TEW0) | inactive: 0.145 | inactive: -0.017 | inactive: -0.123 | inactive: -0.009 | inactive: -0.016 | inactive: -0.032 | inactive: -0.147 | inactive: -0.08 | inactive: 0.016 | inactive: 0.004 | inactive: -0.035 | inactive: -0.087 | inactive: -0.021 | inactive: 0.144 | inactive: -0.031 | inactive: 0.007 | inactive: 0.061 | inactive: -0.013 | active: 0.438 | inactive: 0.04
8 | NUP205 (UniProt Q92621) | inactive: 0.007 | inactive: 0.017 | inactive: 0.038 | inactive: -0.047 | inactive: -0.074 | inactive: 0.027 | inactive: -0.075 | inactive: -0.064 | inactive: 0.043 | inactive: 0.022 | inactive: -0.02 | inactive: -0.078 | inactive: 0.012 | inactive: 0.015 | inactive: -0.003 | inactive: 0.016 | inactive: -0.081 | inactive: 0.008 | inactive: 0 | inactive: -0.018
9 | PANK4 (UniProt Q9NVE7) | inactive: 0.026 | inactive: 0.011 | inactive: 0.054 | inactive: -0.051 | inactive: -0.091 | inactive: 0.003 | inactive: -0.136 | inactive: 0.077 | inactive: 0.001 | inactive: 0.012 | inactive: -0.009 | inactive: -0.117 | inactive: 0.018 | inactive: 0.01 | inactive: 0.019 | inactive: -0.011 | active: 0.498 | inactive: -0.028 | inactive: 0.013 | inactive: -0.017
10 | PAFAH2 (UniProt Q99487) | inactive: 0.078 | inactive: -0.073 | inactive: 0.148 | inactive: 0.052 | inactive: 0.022 | inactive: -0.039 | inactive: 0.043 | inactive: 0.083 | inactive: 0.018 | inactive: -0.099 | inactive: -0.05 | inactive: 0.033 | inactive: 0.02 | inactive: 0.129 | inactive: 0.063 | inactive: 0.021 | inactive: -0.013 | inactive: 0.064 | inactive: 0.3 | inactive: 0
11 | OXR1 (UniProt Q8N573) | inactive: -0.011 | inactive: 0.021 | inactive: -0.013 | inactive: 0.099 | inactive: 0.011 | inactive: -0.071 | inactive: -0.028 | inactive: 0.042 | inactive: 0.002 | inactive: -0.014 | inactive: -0.02 | inactive: 0.033 | inactive: 0.038 | inactive: -0.024 | inactive: 0.025 | inactive: 0.059 | inactive: -0.05 | inactive: -0.036 | inactive: 0.045 | inactive: -0.047
12 | NUP93 (UniProt Q8N1F7) | inactive: -0.001 | inactive: 0.014 | inactive: 0.036 | inactive: -0.069 | inactive: -0.094 | inactive: 0.044 | inactive: -0.048 | inactive: -0.079 | inactive: 0.013 | inactive: 0.028 | inactive: -0.006 | inactive: -0.085 | inactive: -0.013 | inactive: 0.023 | inactive: -0.097 | inactive: 0.029 | inactive: 0.027 | inactive: 0.01 | inactive: -0.007 | inactive: 0.014
13 | OSTC isoform 2 (UniProt Q9NRP0) | inactive: 0.043 | inactive: 0.02 | inactive: -0.012 | inactive: 0.067 | inactive: 0.02 | inactive: -0.034 | inactive: 0.043 | inactive: -0.074 | inactive: -0.043 | inactive: 0.005 | inactive: -0.044 | inactive: -0.083 | inactive: 0.05 | inactive: 0.009 | inactive: 0.031 | inactive: 0.092 | inactive: -0.081 | inactive: -0.065 | inactive: -0.071 | inactive: -0.031
14 | OPLAH (UniProt O14841) | inactive: -0.014 | inactive: 0.006 | inactive: 0.006 | inactive: -0.005 | inactive: -0.043 | inactive: 0.039 | inactive: -0.014 | inactive: 0.005 | inactive: -0.021 | inactive: 0.005 | inactive: -0.032 | inactive: -0.101 | inactive: 0.062 | inactive: -0.002 | inactive: 0.02 | inactive: 0.001 | inactive: 0.062 | inactive: 0.016 | inactive: -0.007 | inactive: -0.008
15 | PA2G4 (UniProt Q9UQ80) | inactive: -0.021 | inactive: 0.003 | inactive: -0.02 | inactive: -0.02 | inactive: -0.027 | inactive: 0.004 | inactive: 0.188 | inactive: -0.04 | inactive: 0.008 | inactive: -0.011 | inactive: 0.038 | inactive: -0.021 | inactive: -0.008 | inactive: 0.023 | inactive: -0.014 | inactive: -0.011 | inactive: 0.092 | inactive: -0.003 | inactive: -0.004 | inactive: -0.038
16 | PAGR1 (UniProt Q9BTK6) | inactive: 0.043 | inactive: 0.036 | inactive: -0.068 | inactive: -0.002 | inactive: 0.048 | inactive: -0.011 | inactive: -0.047 | inactive: -0.007 | inactive: 0 | inactive: 0.086 | inactive: 0.084 | inactive: -0.295 | inactive: -0.114 | inactive: 0.013 | inactive: -0.015 | inactive: 0.077 | inactive: 0.037 | inactive: -0.023 | inactive: -0.034 | inactive: 0.013
